This is one part of the list.
Compound: CC(C)(C)Cn1c(N)nc2ccc(-c3[nH]c(C(C)(C)C)nc3-c3ccc(F)cc3)nc21 [ralimetinib]
Assay: log2 fold change, soluble protein after heating vs DMSO (PISA); higher = thermal stabilisation; K562 lysate, 10 uM; active = over 0.2 and 3.5 SD of the protein, either way, in both replicates (recomputed)
Outline: (§1)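 The values are log-two fold changes in thermal stability compared with solvent controls and come from duplicates. They were obtained by TMTpro 16plex LC-MS/MS, with channel sums equalised, on the supernatant after 21,000xg for 90 min. That supernatant came from crude K562 extract at 1 mg/mL protein treated with 10 μM compound for 30 min, heated for 3 min across 48°C-58°C, pooled and brought to 0.5% NP-40 at 4°C.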

The chains behind the UniProt entries cited, without tags or fusion partners. Where a name states a change or a piece, a line headed by the entry shows the natural chain unless it says otherwise.
UniProt P04424, whole entry, looked up: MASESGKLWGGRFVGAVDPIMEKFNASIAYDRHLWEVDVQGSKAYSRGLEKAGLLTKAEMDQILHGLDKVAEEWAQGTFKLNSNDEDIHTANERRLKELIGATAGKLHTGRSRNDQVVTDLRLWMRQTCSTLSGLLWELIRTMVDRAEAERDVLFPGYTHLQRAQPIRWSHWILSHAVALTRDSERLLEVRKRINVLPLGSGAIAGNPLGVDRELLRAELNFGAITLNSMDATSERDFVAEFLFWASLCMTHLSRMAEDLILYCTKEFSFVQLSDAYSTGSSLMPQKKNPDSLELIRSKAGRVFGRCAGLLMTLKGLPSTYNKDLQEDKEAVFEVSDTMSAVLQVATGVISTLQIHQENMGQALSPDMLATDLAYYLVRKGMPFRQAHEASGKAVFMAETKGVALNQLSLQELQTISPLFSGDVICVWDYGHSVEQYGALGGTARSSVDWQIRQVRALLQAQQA
UniProt P21281, whole entry, looked up: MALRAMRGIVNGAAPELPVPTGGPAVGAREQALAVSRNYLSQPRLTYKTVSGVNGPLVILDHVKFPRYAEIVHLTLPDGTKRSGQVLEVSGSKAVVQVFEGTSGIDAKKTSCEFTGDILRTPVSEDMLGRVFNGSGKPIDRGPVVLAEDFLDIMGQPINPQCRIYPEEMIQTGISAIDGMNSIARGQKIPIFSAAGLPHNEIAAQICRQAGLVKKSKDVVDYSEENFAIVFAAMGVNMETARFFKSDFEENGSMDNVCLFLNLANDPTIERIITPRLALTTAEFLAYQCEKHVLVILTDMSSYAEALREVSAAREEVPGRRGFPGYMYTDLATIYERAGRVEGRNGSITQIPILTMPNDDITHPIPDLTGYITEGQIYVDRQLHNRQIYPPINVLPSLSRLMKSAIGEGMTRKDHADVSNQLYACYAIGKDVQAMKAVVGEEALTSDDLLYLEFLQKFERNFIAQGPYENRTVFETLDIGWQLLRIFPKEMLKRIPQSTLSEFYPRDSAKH
UniProt Q2TAZ0: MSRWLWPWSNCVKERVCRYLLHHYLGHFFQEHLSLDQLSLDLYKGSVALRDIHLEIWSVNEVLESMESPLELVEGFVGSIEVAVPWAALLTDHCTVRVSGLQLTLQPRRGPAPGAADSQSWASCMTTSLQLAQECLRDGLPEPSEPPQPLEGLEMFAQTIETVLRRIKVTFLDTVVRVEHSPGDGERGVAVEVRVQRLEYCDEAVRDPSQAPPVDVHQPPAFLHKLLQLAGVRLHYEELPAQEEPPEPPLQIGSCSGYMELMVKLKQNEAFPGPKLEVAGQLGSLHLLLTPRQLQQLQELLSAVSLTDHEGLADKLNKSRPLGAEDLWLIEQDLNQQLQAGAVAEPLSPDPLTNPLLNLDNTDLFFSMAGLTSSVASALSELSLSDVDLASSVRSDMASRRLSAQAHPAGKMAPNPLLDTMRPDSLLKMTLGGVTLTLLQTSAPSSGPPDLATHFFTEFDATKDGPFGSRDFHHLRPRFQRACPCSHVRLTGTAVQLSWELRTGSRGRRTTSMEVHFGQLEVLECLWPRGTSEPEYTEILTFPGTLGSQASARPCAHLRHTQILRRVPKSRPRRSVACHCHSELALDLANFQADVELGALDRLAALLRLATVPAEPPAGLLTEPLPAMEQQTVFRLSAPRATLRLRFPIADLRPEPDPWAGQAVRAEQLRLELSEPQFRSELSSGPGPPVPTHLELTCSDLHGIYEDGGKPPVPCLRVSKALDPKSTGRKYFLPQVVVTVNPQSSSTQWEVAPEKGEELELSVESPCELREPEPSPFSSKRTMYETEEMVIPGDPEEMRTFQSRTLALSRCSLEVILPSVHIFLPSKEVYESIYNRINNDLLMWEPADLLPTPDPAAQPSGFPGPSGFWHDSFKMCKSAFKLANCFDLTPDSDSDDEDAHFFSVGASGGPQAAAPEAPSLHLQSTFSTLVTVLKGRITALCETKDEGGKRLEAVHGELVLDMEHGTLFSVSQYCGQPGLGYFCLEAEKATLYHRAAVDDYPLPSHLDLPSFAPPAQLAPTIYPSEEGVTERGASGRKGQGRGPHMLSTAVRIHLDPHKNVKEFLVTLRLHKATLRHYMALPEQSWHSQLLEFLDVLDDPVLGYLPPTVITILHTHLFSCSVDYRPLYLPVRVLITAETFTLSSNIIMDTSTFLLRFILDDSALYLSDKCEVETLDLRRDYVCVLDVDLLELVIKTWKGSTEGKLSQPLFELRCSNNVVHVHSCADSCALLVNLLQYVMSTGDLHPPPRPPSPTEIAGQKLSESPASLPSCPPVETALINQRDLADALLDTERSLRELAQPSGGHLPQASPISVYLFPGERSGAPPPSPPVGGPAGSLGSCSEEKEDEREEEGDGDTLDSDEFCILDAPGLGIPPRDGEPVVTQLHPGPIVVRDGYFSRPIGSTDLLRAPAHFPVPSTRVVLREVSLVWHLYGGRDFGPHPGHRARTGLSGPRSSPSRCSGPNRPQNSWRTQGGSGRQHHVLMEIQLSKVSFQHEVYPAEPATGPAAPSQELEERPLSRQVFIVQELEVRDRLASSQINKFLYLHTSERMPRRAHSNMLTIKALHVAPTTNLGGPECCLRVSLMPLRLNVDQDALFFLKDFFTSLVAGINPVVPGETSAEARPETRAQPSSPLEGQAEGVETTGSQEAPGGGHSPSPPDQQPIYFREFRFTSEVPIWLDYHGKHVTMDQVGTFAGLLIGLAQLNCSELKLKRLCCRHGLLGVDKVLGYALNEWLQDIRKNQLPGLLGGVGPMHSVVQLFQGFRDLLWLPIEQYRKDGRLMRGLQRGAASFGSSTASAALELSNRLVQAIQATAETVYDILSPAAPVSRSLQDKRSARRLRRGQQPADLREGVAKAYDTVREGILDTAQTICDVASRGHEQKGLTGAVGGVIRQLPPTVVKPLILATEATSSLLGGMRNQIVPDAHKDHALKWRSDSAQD
UniProt Q96DT6: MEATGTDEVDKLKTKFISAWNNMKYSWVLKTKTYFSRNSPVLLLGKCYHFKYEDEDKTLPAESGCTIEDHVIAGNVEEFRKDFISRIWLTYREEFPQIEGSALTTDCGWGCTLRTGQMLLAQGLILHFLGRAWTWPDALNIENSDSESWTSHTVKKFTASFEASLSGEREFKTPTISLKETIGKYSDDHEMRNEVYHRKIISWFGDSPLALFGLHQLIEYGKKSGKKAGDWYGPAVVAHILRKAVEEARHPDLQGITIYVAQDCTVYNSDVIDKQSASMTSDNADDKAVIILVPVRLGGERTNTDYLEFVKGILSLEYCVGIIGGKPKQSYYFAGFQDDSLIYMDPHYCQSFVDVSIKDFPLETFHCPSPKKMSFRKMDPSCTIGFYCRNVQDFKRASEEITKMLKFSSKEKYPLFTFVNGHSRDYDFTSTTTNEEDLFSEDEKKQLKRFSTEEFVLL
UniProt O43681: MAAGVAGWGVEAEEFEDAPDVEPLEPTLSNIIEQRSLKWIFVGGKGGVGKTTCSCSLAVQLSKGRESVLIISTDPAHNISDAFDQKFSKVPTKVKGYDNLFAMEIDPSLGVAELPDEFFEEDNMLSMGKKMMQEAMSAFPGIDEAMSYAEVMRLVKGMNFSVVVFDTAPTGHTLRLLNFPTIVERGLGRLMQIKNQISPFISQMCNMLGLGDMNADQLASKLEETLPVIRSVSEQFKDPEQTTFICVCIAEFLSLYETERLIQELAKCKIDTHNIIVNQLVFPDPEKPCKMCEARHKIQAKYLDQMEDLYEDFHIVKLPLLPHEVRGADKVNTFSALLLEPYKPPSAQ
UniProt P25311: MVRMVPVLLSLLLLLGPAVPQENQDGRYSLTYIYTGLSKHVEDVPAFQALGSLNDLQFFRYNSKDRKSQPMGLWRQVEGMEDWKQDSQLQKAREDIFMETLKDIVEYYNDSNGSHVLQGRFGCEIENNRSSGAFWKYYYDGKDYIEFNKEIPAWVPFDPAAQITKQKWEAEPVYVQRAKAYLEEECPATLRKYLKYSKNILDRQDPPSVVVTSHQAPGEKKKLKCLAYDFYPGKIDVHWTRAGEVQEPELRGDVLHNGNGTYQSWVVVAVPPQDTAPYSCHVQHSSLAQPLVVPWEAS
UniProt Q9UBL3, whole entry, looked up: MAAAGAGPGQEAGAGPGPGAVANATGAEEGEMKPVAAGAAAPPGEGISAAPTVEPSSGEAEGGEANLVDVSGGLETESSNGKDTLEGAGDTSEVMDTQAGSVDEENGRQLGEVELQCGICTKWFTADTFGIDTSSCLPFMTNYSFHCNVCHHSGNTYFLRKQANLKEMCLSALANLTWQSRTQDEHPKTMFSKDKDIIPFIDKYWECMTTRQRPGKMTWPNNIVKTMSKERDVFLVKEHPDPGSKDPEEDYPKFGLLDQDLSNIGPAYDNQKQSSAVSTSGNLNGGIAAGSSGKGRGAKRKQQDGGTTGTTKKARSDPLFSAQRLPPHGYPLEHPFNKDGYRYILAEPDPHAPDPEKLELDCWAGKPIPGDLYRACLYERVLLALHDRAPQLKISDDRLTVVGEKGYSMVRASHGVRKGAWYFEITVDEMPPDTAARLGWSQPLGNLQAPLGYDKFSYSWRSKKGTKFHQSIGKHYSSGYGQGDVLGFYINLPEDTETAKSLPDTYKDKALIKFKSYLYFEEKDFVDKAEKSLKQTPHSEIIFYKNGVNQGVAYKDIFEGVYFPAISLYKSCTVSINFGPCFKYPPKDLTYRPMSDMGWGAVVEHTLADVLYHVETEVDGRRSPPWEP
UniProt P98196: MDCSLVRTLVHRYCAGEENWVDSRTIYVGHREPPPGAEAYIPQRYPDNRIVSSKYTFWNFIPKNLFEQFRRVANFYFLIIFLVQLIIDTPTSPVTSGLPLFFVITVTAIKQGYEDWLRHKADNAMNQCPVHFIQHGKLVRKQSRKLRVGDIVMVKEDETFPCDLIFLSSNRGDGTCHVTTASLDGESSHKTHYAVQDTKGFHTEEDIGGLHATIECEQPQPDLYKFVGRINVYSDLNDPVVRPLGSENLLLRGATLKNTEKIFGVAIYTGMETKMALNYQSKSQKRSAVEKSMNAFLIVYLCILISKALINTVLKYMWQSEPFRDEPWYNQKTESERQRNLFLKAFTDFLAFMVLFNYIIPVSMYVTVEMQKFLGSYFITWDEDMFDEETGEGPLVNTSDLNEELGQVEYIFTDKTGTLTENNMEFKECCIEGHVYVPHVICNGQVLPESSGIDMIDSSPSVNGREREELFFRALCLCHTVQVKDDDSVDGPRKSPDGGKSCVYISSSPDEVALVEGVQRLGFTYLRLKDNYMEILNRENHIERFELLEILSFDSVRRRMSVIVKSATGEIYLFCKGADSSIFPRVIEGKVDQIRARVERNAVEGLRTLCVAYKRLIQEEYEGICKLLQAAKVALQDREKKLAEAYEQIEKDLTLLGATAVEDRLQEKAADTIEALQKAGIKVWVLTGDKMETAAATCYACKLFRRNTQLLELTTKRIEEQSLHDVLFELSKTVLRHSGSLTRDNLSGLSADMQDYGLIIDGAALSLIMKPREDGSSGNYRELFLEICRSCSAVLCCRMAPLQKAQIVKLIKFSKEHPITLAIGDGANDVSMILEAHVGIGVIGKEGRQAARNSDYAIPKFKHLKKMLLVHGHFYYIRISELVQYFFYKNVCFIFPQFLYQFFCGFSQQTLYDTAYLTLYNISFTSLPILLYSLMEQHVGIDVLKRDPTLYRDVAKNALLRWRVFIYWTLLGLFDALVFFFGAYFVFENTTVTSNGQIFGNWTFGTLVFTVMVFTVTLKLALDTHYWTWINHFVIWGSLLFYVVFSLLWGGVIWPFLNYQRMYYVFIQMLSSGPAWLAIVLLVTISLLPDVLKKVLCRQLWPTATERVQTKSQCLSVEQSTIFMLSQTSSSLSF
UniProt P18859: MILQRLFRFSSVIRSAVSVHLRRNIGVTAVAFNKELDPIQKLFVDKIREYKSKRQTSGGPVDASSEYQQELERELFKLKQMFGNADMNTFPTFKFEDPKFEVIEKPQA
UniProt Q8NBF6: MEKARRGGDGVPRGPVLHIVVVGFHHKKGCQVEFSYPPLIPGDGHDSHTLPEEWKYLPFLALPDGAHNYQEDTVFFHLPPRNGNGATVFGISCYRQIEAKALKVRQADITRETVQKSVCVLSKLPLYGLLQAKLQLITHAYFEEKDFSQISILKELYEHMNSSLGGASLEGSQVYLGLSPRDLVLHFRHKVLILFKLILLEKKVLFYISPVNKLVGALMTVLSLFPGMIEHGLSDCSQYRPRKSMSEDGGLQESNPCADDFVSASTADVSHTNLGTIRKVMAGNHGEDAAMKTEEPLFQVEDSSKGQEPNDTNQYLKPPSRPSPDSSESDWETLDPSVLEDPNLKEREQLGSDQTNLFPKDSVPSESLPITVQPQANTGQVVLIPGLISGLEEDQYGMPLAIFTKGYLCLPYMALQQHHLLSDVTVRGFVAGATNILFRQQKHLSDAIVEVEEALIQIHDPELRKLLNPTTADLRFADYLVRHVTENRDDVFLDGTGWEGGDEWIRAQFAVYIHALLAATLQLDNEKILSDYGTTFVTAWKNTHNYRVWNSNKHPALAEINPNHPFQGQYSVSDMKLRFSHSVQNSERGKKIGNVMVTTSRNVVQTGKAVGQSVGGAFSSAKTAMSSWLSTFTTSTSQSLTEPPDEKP

log2 fold change, inactive:
ASL (UniProt P04424) 0.025
ATE1 isoform 2 (UniProt O95260) -0.006
ATP1A3 isoform 3 (UniProt P13637) -0.009
ATXN10 (UniProt Q9UBB4) -0.002
ATP6V1B2 (UniProt P21281) -0.016
ATG2A isoform 3 (UniProt Q2TAZ0) 0.045
ASF1B (UniProt Q9NVP2) -0.019
ATG4C (UniProt Q96DT6) -0.04
ATP1A4 (UniProt Q13733) -0.045
ASNA1 (UniProt O43681) -0.01
ATP5PO (UniProt P48047) -0.037

Compound: CC(C)(O)CC(=O)NCCn1ccc2ncnc(Nc3ccc(Oc4cccc(C(F)(F)F)c4)c(Cl)c3)c21
Assay: as above
Outline: as §1

log2 fold change, inactive:
B3GLCT (UniProt Q6Y288) -0.013
ATP13A1 (UniProt Q9HD20) -0.104
ATP5F1C (UniProt P36542) -0.039
ATP2B4 (UniProt P23634) -0.029
ATP5F1D (UniProt P30049) -0.053
ATP23 (UniProt Q9Y6H3) -0.015
ATXN3 isoform 1 (UniProt P54252) -0.079
AZGP1 (UniProt P25311) 0.512
ASH2L (UniProt Q9UBL3) 0.034
ATG9A (UniProt Q7Z3C6) -0.054
ATP6V1E2 (UniProt Q96A05) 0.007
ATP1A1 (UniProt P05023) -0.005
ATG101 (UniProt Q9BSB4) -0.019
B2M (UniProt P61769) -0.019
ASB6 (UniProt Q9NWX5) -0.013
ATP11A (UniProt P98196) -0.046
ATP6V1E1 (UniProt P36543) -0.009
ATP5PF isoform 2 (UniProt P18859) 0.063
ATP13A2 (UniProt Q9NQ11) -0.062
ATG7 (UniProt O95352) -0.016
ATRIP (UniProt Q8WXE1) -0.014
AVL9 (UniProt Q8NBF6) 0.004
ATP6V1F isoform 2 (UniProt Q16864) -0.042
ASL (UniProt P04424) 0.021
ATE1 isoform 2 (UniProt O95260) 0.063
ATP1A3 isoform 3 (UniProt P13637) -0.039
ATXN10 (UniProt Q9UBB4) -0.051
ATP6V1B2 (UniProt P21281) -0.033
ATG2A isoform 3 (UniProt Q2TAZ0) -0.009
ASF1B (UniProt Q9NVP2) 0.032
ATG4C (UniProt Q96DT6) 0.038
ATP1A4 (UniProt Q13733) 0.03
ASNA1 (UniProt O43681) 0.018
ATP5PO (UniProt P48047) 0.002
